Experimental data: publication PMC12444563 (ACS Omega, 2025)
Starred links: 1 amine or outer side, 2 acyl side, 3 side chain; linkers in the order of their positions; H or OH if unused. Non-standard residues stand in square brackets, D forms with d. *: point of attachment. Paclitaxel(2'-OCO-DMEDA) = CC(=O)O[C@H]1C(=O)[C@@]2(C)[C@H]([C@H](OC(=O)c3ccccc3)[C@]3(O)C[C@H](OC(=O)[C@H](OC(=O)N(C)CCN(C)*)[C@@H](NC(=O)c4ccccc4)c4ccccc4)C(C)=C1C3(C)C)[C@]1(OC(C)=O)CO[C@@H]1C[C@@H]2O; Fmoc = O=C(OCC1c2ccccc2-c2ccccc21)*; PABC = O=C(OCc1ccc(N[*:1])cc1)[*:2]

Assay: general procedure: Fmoc solid-phase peptide synthesis; Fmoc-Gly-Wang; COMU/DIPEA (Wang resin); HATU/DIPEA (2-CT resin)
Conditions: whole synthesis

Substance | crude yield
Fmoc-GFLG-OH | 80% yield
Fmoc-GPLG-OH | 49%

Assay: general procedure: Fmoc solid-phase peptide synthesis; Fmoc-Gly-Wang resin (loading: 0.4–0.8 mmol/g); 2-CTC resin for Fmoc-VCit-OH; COMU/DIPEA (Wang resin); HATU/DIPEA (2-CT resin)
Conditions: conjugation step

Substance | conjugation yield [% yield]
Fmoc-GFLG[PABC]-{Paclitaxel(2'-OCO-DMEDA)} (SMILES CC(=O)O[C@H]1C(=O)[C@@]2(C)[C@H]([C@H](OC(=O)c3ccccc3)[C@]3(O)C[C@H](OC(=O)[C@H](OC(=O)N(C)CCN(C)C(=O)OCc4ccc(NC(=O)CNC(=O)[C@H](CC(C)C)NC(=O)[C@H](Cc5ccccc5)NC(=O)CNC(=O)OCC5c6ccccc6-c6ccccc65)cc4)[C@@H](NC(=O)c4ccccc4)c4ccccc4)C(C)=C1C3(C)C)[C@]1(OC(C)=O)CO[C@@H]1C[C@@H]2O) | 28

Same assay, conditions: conjugation step, analytical HPLC with diode array UV detector

Substance | final HPLC purity [%]
Fmoc-GFLG[PABC]-{Paclitaxel(2'-OCO-DMEDA)} (SMILES CC(=O)O[C@H]1C(=O)[C@@]2(C)[C@H]([C@H](OC(=O)c3ccccc3)[C@]3(O)C[C@H](OC(=O)[C@H](OC(=O)N(C)CCN(C)C(=O)OCc4ccc(NC(=O)CNC(=O)[C@H](CC(C)C)NC(=O)[C@H](Cc5ccccc5)NC(=O)CNC(=O)OCC5c6ccccc6-c6ccccc65)cc4)[C@@H](NC(=O)c4ccccc4)c4ccccc4)C(C)=C1C3(C)C)[C@]1(OC(C)=O)CO[C@@H]1C[C@@H]2O) | 96

Same assay, conditions: late stage modification step

Substance | step yield [% yield]
Fmoc-GFLG-N-4-(hydroxymethyl)-phenyl | 96
Fmoc-GFLG-N-4-(methyl)-phenyl 4-Nitrophenyl Carbonate | 78
Fmoc-GFLG-N-4-(methyloxycarbonyl-(N,N′-dimethylethylenediamine))-phenyl | 88
Fmoc-GFLG-N-4-(methyloxycarbonyl-(N-Boc-N,N′-dimethylethylenediamine))-phenyl | 76
Fmoc-GPLG-N-4-(hydroxymethyl)-phenyl | 82
Fmoc-GPLG-N-4-(methyl)-phenyl 4-Nitrophenyl Carbonate | 58
Fmoc-GPLG-N-4-(methyloxycarbonyl-(N,N′-dimethylethylenediamine))-phenyl | 40
Fmoc-GPLG-N-4-(methyloxycarbonyl-(N-Boc-N,N′-dimethylethylenediamine))-phenyl | 69
